Results are given in words; binding and its absence hold for the method and conditions named. Binding seen in cells or lysates may run through a third protein. Some binding calls cover weakened binding; strength is not graded here.
Molecular target: APC (human (endogenous in SW116)) (UniProt P25054)
Assay: co-IP; total lysate of SW116 cells (50 mM Tris-HCl pH 7.5, 150 mM NaCl, 1 mM EDTA, 0.3% Triton X-100, PMSF); 1 ug anti-APC or anti-KRT17 antibody overnight at 4°C, protein A agarose beads, eight washes, Western blotting

Chains of the proteins cited; added tags and fusions are not shown.
UniProt P25054: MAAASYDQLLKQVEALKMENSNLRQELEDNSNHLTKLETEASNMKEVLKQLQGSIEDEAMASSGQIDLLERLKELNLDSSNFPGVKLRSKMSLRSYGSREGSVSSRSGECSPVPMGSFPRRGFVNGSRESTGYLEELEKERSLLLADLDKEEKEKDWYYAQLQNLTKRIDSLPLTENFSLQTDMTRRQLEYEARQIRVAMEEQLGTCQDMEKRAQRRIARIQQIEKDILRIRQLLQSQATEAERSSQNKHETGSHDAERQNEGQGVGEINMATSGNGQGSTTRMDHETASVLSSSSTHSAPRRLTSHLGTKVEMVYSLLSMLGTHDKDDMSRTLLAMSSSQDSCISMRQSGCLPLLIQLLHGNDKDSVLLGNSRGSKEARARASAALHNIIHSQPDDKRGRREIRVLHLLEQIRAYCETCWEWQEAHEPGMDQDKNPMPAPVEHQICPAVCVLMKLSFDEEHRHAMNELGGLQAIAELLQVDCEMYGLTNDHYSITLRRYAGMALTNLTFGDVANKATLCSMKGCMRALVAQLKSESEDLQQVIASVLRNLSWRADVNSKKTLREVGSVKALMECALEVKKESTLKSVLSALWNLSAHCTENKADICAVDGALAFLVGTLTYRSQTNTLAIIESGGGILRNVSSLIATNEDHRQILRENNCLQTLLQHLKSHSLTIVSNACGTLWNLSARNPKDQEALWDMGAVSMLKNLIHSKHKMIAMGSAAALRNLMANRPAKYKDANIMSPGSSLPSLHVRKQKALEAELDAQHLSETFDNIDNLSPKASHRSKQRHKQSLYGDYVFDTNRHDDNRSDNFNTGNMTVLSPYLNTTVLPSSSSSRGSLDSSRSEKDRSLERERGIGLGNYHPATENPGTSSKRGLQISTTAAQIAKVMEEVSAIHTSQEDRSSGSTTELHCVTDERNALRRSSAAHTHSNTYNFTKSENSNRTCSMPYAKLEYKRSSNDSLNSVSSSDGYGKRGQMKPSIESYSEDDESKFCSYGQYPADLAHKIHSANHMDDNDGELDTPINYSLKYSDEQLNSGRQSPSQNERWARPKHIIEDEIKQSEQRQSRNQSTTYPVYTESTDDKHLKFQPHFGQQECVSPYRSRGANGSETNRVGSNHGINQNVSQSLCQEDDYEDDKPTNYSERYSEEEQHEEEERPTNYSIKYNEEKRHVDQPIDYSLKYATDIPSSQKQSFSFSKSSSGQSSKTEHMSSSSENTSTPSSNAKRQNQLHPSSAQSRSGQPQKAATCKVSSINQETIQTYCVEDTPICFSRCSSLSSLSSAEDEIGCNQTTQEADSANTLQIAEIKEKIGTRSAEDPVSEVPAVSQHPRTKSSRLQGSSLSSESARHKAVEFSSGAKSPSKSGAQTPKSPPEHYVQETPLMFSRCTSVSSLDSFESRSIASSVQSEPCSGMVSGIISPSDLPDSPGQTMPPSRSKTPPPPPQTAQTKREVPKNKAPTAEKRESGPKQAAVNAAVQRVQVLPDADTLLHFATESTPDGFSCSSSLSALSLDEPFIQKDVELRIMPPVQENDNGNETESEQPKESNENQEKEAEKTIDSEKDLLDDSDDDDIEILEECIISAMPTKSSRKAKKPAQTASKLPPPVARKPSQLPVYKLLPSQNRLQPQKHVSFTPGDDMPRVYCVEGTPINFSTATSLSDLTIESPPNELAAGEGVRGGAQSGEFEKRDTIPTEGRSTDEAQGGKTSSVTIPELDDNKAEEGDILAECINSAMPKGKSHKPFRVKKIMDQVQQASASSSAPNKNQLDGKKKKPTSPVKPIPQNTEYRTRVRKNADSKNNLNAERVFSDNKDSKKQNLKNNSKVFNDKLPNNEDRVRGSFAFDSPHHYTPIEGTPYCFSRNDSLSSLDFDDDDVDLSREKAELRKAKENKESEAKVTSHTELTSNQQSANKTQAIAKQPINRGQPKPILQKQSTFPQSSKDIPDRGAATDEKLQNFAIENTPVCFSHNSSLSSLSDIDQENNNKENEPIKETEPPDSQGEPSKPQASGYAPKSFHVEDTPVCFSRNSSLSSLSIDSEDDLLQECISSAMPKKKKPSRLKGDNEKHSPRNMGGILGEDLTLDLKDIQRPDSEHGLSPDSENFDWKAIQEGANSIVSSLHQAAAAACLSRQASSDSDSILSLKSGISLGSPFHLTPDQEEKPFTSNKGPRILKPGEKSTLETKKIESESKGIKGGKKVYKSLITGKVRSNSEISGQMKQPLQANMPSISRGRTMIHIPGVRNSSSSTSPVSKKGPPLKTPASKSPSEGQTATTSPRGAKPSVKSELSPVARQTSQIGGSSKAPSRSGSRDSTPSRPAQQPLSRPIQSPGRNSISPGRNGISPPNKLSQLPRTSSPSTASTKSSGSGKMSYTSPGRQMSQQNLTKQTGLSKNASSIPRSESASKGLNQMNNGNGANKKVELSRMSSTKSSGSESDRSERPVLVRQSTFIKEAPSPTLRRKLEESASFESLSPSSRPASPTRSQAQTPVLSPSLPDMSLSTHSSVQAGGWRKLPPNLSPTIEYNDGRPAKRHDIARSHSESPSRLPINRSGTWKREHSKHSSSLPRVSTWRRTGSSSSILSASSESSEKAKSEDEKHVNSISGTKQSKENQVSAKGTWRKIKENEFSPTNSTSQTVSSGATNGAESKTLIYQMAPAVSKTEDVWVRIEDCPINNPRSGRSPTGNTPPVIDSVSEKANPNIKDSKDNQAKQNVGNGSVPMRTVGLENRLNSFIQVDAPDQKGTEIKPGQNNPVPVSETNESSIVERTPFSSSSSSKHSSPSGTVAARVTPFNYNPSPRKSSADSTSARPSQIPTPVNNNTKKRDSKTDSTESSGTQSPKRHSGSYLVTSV
UniProt Q04695: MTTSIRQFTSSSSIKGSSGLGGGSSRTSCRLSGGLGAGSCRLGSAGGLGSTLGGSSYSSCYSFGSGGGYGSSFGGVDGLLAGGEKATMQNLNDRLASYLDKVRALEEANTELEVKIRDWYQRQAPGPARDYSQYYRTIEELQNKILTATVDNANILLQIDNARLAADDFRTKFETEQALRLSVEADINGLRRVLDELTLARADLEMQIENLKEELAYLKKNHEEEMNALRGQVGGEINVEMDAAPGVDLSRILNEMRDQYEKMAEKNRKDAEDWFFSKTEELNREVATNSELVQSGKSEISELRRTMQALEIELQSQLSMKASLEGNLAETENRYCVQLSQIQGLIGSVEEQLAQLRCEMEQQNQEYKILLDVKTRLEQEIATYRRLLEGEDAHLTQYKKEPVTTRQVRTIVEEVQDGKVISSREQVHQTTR

Q: How did the binding turn out when Keratin 17 (from UniProt Q04695 1-432) was run?
A: binds

Reference: publication PMC8809968
